From a melanoma drug combination screen (doi:10.1371/journal.pone.0140310); values rounded.

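Human melanoma cell lines in 1,536-well plates were treated with a pair of drugs for 72 h, then fixed, stained and imaged. Values are the share of nuclei positive for cleaved PARP as a percentage of the same share in the DMSO control: 100 is the control level, higher means more apoptosis. Concentrations were fixed for each drug; these are the higher of two levels. The file gives one value for each pair and line, without errors, so small differences may be noise. The marker varies much from line to line, for technical or biological reasons.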 This is part of the screen, not chosen by result.

Drugs:
SNS-032, 0.05 µM: CC(C)(C)c1cnc(CSc2cnc(NC(=O)C3CCNCC3)s2)o1
tipifarnib, 0.05 µM: Cn1cncc1[C@@](N)(c1ccc(Cl)cc1)c1ccc2c(c1)c(-c1cccc(Cl)c1)cc(=O)n2C
OSU-03012, 5 µM: NCC(=O)Nc1ccc(-n2nc(C(F)(F)F)cc2-c2ccc3c(ccc4ccccc43)c2)cc1
sorafenib, 2 µM: CNC(=O)c1cc(Oc2ccc(NC(=O)Nc3ccc(Cl)c(C(F)(F)F)c3)cc2)ccn1
KU-0063794, 0.1 µM: COc1ccc(-c2ccc3c(N4CCOCC4)nc(N4C[C@@H](C)O[C@@H](C)C4)nc3n2)cc1CO
docetaxel, 0.0005 µM: CC(=O)O[C@@]12CO[C@@H]1C[C@H](O)[C@@]1(C)C(=O)[C@H](O)C3=C(C)[C@@H](OC(=O)[C@H](O)[C@@H](NC(=O)OC(C)(C)C)c4ccccc4)C[C@@](O)([C@@H](OC(=O)c4ccccc4)[C@H]21)C3(C)C
LFM-A13, 10 µM: C/C(O)=C(\C#N)C(=O)Nc1cc(Br)ccc1Br
dovitinib, 0.5 µM: CN1CCN(c2ccc3nc(-c4c(N)c5c(F)cccc5[nH]c4=O)[nH]c3c2)CC1
BI-78D3, 1 µM: O=c1[nH]nc(Sc2ncc([N+](=O)[O-])s2)n1-c1ccc2c(c1)OCCO2
bortezomib, 0.005 µM: CC(C)C[C@H](NC(=O)[C@H](Cc1ccccc1)NC(=O)c1cnccn1)B(O)O

For BI-78D3 and sorafenib the values were SK-MEL-30: 103; IPC-298: 161; LB2518-MEL: 85.9; RPMI-7951: 171. tipifarnib and OSU-03012 gave SK-MEL-30: 413; IPC-298: 345; LB2518-MEL: 112; RPMI-7951: 179. dovitinib and BI-78D3 gave SK-MEL-30: 170; IPC-298: 207; LB2518-MEL: 189; RPMI-7951: 160.

OSU-03012 and sorafenib gave SK-MEL-30: 748; IPC-298: 163; LB2518-MEL: 70.5; RPMI-7951: 160. For KU-0063794 and tipifarnib the values were SK-MEL-30: 91.3; IPC-298: 130; LB2518-MEL: 75.5; RPMI-7951: 44.9. With OSU-03012 and SNS-032 the screen read SK-MEL-30: 1120; IPC-298: 173; LB2518-MEL: 133; RPMI-7951: 384.

For LFM-A13 and KU-0063794 the values were SK-MEL-30: 109; IPC-298: 27.9; LB2518-MEL: 74.9; RPMI-7951: 98.6. KU-0063794 and bortezomib gave SK-MEL-30: 638; IPC-298: 1610; LB2518-MEL: 2820; RPMI-7951: 909. sorafenib and docetaxel gave SK-MEL-30: 785; IPC-298: 311; LB2518-MEL: 94.2; RPMI-7951: 137.

Results for BI-78D3 and bortezomib are SK-MEL-30: 839; IPC-298: 3500; LB2518-MEL: 5120; RPMI-7951: 1850. tipifarnib and SNS-032 gave SK-MEL-30: 192; IPC-298: 79.5; LB2518-MEL: 168; RPMI-7951: 515. SNS-032 and LFM-A13 gave SK-MEL-30: 219; IPC-298: 142; LB2518-MEL: 81.7; RPMI-7951: 165.

With sorafenib and dovitinib the screen read SK-MEL-30: 128; IPC-298: 132; LB2518-MEL: 220; RPMI-7951: 155. OSU-03012 and bortezomib gave SK-MEL-30: 1310; IPC-298: 2180; LB2518-MEL: 10300; RPMI-7951: 1350. For tipifarnib and BI-78D3 the values were SK-MEL-30: 79.2; IPC-298: 33.1; LB2518-MEL: 115; RPMI-7951: 87.8.

Results for SNS-032 and BI-78D3 are SK-MEL-30: 62.4; IPC-298: 111; LB2518-MEL: 37.8; RPMI-7951: 290. Results for KU-0063794 and sorafenib are SK-MEL-30: 40.6; IPC-298: 152; LB2518-MEL: 64.1; RPMI-7951: 168. SNS-032 and dovitinib gave SK-MEL-30: 103; IPC-298: 237; LB2518-MEL: 194; RPMI-7951: 73.3.

Results for KU-0063794 and SNS-032 are SK-MEL-30: 120; IPC-298: 49.0; LB2518-MEL: 102; RPMI-7951: 347. BI-78D3 and LFM-A13 gave SK-MEL-30: 96.2; IPC-298: 196; LB2518-MEL: 97.2; RPMI-7951: 120. For docetaxel and SNS-032 the values were SK-MEL-30: 272; IPC-298: 172; LB2518-MEL: 157; RPMI-7951: 778.

With KU-0063794 and BI-78D3 the screen read SK-MEL-30: 106; IPC-298: 169; LB2518-MEL: 124; RPMI-7951: 96.6. docetaxel and dovitinib gave SK-MEL-30: 647; IPC-298: 667; LB2518-MEL: 314; RPMI-7951: 744. Results for LFM-A13 and docetaxel are SK-MEL-30: 385; IPC-298: 522; LB2518-MEL: 235; RPMI-7951: 178.

Repeated from the top, 2 entries:

Drugs,SK-MEL-30,IPC-298,LB2518-MEL,RPMI-7951
BI-78D3 and sorafenib,103,161,85.9,171
tipifarnib and OSU-03012,413,345,112,179